Measured values: article PMC8301221
Results are given in words; binding and its absence hold for the method and conditions named. Binding seen in cells or lysates may run through a third protein.

Protein sequences, listed by entry. Tags and fused reporters are not part of them.
UniProt P42224: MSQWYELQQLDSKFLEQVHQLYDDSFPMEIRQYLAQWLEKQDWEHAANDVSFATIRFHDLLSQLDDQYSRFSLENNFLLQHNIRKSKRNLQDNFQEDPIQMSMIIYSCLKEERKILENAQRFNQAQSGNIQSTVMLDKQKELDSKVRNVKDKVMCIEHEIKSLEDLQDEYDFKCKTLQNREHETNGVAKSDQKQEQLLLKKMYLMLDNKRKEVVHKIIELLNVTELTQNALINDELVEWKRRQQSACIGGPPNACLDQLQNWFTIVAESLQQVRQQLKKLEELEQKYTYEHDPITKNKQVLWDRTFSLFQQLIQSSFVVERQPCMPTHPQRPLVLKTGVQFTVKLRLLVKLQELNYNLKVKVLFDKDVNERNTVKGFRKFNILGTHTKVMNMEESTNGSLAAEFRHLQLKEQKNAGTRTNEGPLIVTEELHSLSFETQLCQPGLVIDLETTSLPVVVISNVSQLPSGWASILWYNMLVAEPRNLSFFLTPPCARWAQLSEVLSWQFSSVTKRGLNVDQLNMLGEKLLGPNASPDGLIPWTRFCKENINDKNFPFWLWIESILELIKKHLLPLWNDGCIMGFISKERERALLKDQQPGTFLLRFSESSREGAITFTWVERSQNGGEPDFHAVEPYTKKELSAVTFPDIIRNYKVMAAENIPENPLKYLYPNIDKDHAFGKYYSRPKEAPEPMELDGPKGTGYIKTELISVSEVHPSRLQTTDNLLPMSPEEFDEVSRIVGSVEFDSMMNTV
UniProt P52630: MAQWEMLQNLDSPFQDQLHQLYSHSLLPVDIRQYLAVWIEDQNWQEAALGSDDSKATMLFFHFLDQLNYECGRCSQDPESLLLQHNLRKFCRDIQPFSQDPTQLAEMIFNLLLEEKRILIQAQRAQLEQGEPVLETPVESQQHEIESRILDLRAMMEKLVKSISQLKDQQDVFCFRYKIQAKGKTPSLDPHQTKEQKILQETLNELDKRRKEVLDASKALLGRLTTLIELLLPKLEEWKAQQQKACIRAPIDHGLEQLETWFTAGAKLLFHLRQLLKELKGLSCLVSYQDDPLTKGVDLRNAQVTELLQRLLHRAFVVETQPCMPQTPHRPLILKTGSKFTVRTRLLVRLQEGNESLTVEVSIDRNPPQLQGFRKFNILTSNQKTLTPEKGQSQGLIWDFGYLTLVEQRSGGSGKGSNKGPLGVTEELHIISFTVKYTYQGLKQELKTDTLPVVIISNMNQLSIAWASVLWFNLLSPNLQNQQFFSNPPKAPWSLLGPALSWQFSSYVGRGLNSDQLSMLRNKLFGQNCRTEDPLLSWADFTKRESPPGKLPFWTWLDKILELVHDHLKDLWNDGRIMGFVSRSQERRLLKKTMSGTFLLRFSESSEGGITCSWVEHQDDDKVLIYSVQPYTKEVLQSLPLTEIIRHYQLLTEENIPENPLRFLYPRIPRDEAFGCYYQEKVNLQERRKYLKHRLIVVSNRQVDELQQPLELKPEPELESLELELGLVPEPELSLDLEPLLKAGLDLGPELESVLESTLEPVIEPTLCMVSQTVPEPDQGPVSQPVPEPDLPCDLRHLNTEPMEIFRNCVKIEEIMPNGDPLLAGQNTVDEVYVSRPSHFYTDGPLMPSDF
UniProt P16846: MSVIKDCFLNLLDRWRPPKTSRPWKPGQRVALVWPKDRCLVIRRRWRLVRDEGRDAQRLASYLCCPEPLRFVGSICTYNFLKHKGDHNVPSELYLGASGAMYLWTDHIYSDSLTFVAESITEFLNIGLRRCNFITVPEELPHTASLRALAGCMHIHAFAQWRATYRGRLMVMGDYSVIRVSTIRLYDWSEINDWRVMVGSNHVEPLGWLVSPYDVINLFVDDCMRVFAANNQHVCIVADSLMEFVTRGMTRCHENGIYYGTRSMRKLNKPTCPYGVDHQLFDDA

What was measured:
Assay in all cases: co-IP; HEK293T cells transfected with empty vector or Flag-UL23 plasmid for 46 h; RIPA lysates immunoprecipitated separately with anti-IRF9, anti-STAT1 and anti-STAT2 antibodies and protein A/G; immunoblot
[1] = biological target: signal transducer and activator of transcription 1 (STAT1) (human (endogenous in HEK293T)) (UniProt P42224)
[2] = biological target: signal transducer and activator of transcription 2 (STAT2) (human (endogenous in HEK293T)) (UniProt P52630)
[3] = biological target: T1, IFN regulatory factor 9 (IRF9) (human (endogenous in HEK293T)) (UniProt Q00978)
T1 sequence: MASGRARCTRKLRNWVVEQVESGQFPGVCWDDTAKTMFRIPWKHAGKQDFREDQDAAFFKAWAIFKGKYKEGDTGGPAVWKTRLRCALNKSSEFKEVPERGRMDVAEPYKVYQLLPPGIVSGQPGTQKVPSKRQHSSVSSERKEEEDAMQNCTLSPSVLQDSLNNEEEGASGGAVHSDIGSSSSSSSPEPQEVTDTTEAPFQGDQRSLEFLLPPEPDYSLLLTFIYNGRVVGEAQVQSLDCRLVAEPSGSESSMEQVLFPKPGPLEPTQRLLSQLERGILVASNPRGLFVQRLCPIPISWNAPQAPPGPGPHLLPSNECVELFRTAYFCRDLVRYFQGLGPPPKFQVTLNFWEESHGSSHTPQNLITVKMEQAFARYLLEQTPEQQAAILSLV

Measured: binding

Human cytomegalovirus (HCMV) tegument protein UL23, Flag-tagged (from UniProt P16846 1-284)
no binding: all assays above
